Data published in PubChem BioAssay AID2685 (National Center for Advancing Translational Sciences (NCATS), 2010).
The list shows a part of the results. These are further read-outs of the screen, such as a control signal, another cell line or another target. No call is given for them. Compounds called inactive in the main read-out are mostly missing here. Potencies come from curve fits of mixed quality, noted in brackets.

Assay: qHTS Assay for Lipid Storage Modulators in Drosophila S3 Cells;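 for cell number change: cells counted by Cell Tracker Red CMTPX staining in the red channel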
Settings: BODIPY lipid droplet fluorescence, 18-24 h; for cell number change: measured here: cell count max response, cells fed with added oleic acid
Procedure, shortened: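 Drosophila S3 cells got compounds at several concentrations plus oleic acid (400 uM solution). Laser-scanning cytometry with 488 nm excitation read lipid droplets at 500-530 nm and cells at 575-640 nm. Percent activity was relative to 20 uM Triacsin C.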

[1] = measured here: cell number channel AC50, cells fed with added oleic acid
[2] = measured here: lipid fluorescence (Fed channel) AC50, cells fed with added oleic acid

In the case of `O=C(Nc1cccc([N+](=O)[O-])c1)c1ccc(-c2ccccc2)cc1`, the cell number change was -37.1%, the AC50 [1] was 32.6 µM [falling, partial curve, poor fit] and the AC50 [2] was 16.4 µM [rising, partial curve].

In the case of `CCc1ccc2[nH]c(C(=O)Nc3ccc(F)cc3Br)cc2c1`, the cell number change was -13.9% and the AC50 [1] was 3.66 µM [falling, partial curve].

For `O=C(Oc1nsnc1N1CCOCC1)c1ccccc1`, the cell number change was -22.6%, the AC50 [1] was 2.59 µM [falling, single point] and the AC50 [2] was 4.61 µM [falling, full curve].

In the case of `CCOC(=O)c1cccc(NC(=O)C(C)N2C(=O)c3ccccc3C2=O)c1` (stereo not given), the cell number change was -32.1%, the AC50 [1] was 6.51 µM [falling, full curve, poor fit] and the AC50 [2] was 0.00411 µM [rising, full curve, poor fit].

For `COC(=O)c1c(NC(=O)C2CC=CCC2C(=O)O)sc2c1CCCCC2` (stereo not given), the cell number change was -11.9% and the AC50 [2] was 0.58 µM [rising, single point].

For `Cc1cc(C)c2c(c1)NC(C(=O)O)C1CC=CC21` (stereo not given), the cell number change was -0.525% and the AC50 [2] was 8.2 µM [rising, partial curve].

For `CC1=C(C(N)=O)C(c2ccccc2)n2nc(-c3cccs3)nc2N1` (stereo not given), the cell number change was 10.7% and the AC50 [2] was 0.0517 µM [rising, full curve, poor fit].

With `Cc1ccc(NCc2ccccc2O)cc1` the cell number change was -30.1%, the AC50 [1] was 20.6 µM [falling, single point] and the AC50 [2] was 20.6 µM [falling, partial curve].

In the case of `COc1ccc(C2(O)CCN(CCCCOc3ccccc3)CC2)cc1`, the cell number change was 3.98% and the AC50 [2] was 0.366 µM [falling, full curve].

For `O=c1c2cccc(Cl)c2nc2n1Cc1ccccc1-2`, the cell number change was 5.08% and the AC50 [2] was 0.259 µM [rising, partial curve, poor fit].

For `Cn1c(-c2ccc(F)cc2)cnc1SCC(=O)Nc1ccccc1`, the cell number change was -25.6% and the AC50 [2] was 16.4 µM [falling, single point].

For `CCC(=O)Nc1ccc(NC(=O)c2ccco2)cc1`, the cell number change was 4.01%, the AC50 [1] was 0.82 µM [falling, full curve, poor fit] and the AC50 [2] was 1.46 µM [falling, partial curve].

In the case of `CC(C)=CCC1=C(OCC(=O)O)C(=O)c2ccccc2C1=O`, the cell number change was -38.7%, the AC50 [1] was 18.4 µM [falling, single point] and the AC50 [2] was 18.4 µM [falling, single point].

With `Cc1noc(N)c1C1(O)C(=O)N(C(C)C)c2ccccc21` (stereo not given) the cell number change was -39.2%, the AC50 [1] was 0.146 µM [falling, full curve, poor fit] and the AC50 [2] was 0.259 µM [falling, full curve].
